Results reported in the supplement of paper PMC12067093, “Discovery and optimisation of a covalent ligand for TRIM25 and its application to targeted protein ubiquitination” (Chemical Science, 2025).
The other results are listed elsewhere or left out.

Amino acid sequences for entries named in this document (tags omitted). A change or cut given only in a name is not applied to a line headed by its entry.
UniProt Q99733: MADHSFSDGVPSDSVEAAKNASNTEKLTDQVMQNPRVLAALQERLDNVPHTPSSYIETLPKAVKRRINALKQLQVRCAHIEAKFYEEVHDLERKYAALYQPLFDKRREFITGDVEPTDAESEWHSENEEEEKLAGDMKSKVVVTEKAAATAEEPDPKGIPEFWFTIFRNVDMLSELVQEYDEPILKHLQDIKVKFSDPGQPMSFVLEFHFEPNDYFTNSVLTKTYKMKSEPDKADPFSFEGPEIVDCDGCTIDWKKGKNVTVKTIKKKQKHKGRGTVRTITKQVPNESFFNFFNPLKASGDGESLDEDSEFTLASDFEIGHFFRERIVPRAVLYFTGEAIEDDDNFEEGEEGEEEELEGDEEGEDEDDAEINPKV
UniProt Q6IA69: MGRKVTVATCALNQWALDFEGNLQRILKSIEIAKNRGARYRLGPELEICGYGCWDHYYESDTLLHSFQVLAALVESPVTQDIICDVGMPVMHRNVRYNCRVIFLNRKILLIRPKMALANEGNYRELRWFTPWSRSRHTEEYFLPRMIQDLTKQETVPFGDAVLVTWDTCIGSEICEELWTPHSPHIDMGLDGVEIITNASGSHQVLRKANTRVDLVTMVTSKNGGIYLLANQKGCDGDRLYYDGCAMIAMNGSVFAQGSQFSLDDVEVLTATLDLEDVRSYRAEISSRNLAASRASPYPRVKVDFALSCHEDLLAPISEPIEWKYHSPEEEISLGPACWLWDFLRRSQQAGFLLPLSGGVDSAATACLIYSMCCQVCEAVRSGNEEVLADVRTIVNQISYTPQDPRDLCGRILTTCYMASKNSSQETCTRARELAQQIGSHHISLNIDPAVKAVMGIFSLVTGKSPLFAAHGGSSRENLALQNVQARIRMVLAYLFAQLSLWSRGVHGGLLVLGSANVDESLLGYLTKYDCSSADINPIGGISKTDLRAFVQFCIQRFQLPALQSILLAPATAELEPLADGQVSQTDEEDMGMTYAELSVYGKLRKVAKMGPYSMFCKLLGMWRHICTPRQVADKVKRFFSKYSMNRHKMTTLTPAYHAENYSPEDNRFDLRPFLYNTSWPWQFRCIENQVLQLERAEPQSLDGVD
UniProt Q15003, whole entry, looked up: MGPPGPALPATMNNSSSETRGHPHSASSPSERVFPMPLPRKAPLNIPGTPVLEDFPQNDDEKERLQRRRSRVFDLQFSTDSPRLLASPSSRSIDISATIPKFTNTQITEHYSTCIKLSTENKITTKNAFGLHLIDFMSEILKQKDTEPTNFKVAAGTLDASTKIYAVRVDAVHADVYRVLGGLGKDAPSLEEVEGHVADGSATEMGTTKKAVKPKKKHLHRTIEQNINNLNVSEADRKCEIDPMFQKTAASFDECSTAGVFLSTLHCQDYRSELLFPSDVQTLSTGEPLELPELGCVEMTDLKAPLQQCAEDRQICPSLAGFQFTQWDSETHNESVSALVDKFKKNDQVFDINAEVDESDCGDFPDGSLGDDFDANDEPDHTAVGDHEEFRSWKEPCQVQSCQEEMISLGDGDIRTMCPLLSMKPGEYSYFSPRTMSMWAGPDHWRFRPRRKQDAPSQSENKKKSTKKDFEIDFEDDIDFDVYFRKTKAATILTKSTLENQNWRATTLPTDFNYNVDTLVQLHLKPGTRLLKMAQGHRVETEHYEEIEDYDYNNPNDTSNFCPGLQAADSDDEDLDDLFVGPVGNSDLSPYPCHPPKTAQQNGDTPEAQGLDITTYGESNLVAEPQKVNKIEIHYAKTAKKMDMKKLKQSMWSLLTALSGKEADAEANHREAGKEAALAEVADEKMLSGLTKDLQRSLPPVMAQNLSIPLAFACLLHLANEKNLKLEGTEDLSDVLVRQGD
UniProt P60660, whole entry, looked up: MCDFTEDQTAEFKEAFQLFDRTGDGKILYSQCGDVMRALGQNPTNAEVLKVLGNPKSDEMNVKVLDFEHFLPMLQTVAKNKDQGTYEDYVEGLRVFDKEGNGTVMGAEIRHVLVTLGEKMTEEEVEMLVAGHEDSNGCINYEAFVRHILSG
UniProt Q92614: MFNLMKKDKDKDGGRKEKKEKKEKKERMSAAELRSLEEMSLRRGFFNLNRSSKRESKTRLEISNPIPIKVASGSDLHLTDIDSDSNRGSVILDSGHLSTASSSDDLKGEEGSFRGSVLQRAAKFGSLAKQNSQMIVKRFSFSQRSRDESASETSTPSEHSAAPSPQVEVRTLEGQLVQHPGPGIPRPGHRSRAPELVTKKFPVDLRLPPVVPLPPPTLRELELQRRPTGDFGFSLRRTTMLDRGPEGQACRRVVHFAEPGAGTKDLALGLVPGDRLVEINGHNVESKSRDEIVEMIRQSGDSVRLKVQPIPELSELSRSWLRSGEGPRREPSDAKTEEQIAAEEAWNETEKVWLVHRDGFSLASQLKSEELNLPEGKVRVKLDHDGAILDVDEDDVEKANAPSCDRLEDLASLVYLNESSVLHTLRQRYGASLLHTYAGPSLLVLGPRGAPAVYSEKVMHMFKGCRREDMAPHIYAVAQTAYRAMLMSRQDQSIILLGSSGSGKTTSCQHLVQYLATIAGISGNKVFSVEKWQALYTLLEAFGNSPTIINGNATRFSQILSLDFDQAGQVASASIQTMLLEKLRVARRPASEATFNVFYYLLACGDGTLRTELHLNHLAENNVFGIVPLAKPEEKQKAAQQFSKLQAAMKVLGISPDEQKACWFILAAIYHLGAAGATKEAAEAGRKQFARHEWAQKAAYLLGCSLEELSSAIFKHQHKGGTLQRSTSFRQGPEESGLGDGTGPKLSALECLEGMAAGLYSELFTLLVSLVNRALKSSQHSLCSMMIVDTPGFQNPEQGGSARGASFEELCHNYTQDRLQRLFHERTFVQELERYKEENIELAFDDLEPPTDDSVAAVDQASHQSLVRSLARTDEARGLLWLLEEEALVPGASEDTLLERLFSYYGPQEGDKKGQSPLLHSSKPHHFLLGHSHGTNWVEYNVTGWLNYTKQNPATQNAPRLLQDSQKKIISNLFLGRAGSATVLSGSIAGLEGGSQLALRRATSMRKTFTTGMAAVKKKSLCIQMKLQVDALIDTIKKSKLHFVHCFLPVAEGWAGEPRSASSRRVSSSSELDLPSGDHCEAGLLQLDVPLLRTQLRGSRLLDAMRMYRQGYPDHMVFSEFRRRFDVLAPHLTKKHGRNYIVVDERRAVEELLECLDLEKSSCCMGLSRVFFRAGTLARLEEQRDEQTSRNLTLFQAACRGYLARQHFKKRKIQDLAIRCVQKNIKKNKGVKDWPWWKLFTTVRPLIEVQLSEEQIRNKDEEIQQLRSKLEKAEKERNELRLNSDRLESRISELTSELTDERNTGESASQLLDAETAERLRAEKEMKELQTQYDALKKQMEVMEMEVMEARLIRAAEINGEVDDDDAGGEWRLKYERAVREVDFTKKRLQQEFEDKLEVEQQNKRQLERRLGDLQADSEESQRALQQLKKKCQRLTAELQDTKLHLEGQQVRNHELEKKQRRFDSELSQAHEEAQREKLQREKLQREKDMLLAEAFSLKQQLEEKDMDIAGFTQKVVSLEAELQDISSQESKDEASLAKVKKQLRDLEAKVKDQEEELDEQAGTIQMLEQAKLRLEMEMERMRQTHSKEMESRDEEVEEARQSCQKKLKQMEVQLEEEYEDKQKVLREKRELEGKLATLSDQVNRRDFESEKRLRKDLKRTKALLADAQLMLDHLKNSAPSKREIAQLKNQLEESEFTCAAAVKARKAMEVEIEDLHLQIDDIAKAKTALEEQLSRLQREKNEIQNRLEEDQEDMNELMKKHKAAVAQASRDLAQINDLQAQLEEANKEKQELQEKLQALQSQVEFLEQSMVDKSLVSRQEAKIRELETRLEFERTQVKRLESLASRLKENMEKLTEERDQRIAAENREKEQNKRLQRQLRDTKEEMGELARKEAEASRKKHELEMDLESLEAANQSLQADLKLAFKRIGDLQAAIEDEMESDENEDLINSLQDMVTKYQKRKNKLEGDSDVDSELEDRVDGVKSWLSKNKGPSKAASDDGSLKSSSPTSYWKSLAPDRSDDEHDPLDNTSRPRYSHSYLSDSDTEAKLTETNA
UniProt P24844: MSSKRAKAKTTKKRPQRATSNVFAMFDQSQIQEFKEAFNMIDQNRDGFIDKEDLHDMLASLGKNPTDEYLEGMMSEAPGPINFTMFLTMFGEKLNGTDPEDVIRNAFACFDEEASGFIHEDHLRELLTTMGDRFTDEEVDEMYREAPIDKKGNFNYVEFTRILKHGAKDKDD
UniProt P41227: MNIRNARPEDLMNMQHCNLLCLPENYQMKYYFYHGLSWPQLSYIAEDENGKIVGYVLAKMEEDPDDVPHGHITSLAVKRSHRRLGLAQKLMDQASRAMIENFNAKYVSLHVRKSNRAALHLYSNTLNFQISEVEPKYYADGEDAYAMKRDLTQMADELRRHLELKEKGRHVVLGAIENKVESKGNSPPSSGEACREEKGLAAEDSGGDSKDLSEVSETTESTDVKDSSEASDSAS
UniProt Q13459: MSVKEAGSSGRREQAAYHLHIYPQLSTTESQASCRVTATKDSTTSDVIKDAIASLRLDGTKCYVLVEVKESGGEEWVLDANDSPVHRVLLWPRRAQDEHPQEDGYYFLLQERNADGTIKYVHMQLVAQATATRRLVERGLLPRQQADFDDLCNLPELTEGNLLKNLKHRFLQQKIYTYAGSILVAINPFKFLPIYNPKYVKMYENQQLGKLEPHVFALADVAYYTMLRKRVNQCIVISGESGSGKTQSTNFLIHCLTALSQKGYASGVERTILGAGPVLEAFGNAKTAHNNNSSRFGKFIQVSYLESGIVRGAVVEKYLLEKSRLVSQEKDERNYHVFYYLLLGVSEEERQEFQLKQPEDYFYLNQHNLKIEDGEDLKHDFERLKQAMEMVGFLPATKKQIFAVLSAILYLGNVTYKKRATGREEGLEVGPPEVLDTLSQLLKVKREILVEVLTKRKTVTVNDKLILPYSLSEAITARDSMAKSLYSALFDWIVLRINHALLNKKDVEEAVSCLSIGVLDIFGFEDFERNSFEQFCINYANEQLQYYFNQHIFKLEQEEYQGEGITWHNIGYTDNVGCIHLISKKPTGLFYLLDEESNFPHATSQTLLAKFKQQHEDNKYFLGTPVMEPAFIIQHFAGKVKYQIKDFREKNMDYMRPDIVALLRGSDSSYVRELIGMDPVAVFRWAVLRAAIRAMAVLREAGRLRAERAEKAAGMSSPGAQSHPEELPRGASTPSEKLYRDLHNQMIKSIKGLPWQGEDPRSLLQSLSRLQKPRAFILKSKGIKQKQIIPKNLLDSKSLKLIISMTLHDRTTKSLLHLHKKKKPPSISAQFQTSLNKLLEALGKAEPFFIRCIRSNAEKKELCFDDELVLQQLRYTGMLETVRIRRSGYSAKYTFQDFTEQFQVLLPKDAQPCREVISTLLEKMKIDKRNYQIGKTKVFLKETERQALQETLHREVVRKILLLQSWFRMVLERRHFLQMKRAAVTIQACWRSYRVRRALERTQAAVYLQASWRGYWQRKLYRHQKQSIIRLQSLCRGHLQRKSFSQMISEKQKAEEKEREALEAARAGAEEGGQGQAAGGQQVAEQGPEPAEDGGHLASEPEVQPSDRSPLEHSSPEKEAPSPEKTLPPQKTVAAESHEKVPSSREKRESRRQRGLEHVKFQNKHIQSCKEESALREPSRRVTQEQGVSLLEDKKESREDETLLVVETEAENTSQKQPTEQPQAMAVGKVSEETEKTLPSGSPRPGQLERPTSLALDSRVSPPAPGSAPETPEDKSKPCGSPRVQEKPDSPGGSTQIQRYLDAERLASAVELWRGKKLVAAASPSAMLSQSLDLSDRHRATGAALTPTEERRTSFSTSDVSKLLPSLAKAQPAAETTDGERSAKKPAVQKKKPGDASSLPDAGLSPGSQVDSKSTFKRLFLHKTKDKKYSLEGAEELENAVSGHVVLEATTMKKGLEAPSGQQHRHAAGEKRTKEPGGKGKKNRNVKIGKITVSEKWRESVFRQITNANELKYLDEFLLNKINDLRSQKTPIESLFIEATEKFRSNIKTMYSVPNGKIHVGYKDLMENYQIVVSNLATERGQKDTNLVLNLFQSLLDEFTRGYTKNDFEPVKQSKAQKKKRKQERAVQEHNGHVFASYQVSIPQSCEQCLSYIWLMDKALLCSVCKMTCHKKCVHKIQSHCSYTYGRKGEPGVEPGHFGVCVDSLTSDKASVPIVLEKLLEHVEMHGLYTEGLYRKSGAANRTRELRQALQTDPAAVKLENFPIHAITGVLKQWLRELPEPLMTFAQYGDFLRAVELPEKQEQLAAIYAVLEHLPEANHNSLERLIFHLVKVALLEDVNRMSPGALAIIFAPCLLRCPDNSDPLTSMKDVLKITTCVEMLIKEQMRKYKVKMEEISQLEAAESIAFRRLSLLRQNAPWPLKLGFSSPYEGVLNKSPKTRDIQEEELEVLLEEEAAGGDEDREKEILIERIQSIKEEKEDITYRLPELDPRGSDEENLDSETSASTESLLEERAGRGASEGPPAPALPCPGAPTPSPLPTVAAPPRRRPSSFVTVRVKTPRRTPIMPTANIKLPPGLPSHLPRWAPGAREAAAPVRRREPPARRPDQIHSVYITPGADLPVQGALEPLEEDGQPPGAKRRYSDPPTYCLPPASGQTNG

Each target was assayed with CC1Cc2ccccc2N1C(=O)C1CCCN(C1)C(=O)CCl (mixture of isomers) [TRIM25 ligand 11 (diastereomer mixture)] (assay: probe-labelled cysteine peptide fold change vs DMSO (competition) (log2 fold change); higher = less target engagement (more negative = stronger competition)). Conditions: 50 µM; THP-1; incubation time: 4 h.
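Further: competitive chemoproteomic profiling in live THP-1 cells with an iodoacetamide desthiobiotin (IA-DTB) probe, comparing probe-labelled peptide intensities in compound-treated cells against DMSO-treated controls.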

Row | Target | probe-labelled cysteine peptide fold change
1 | NAP1L4_Q99733_247_ADPFSFEGPEIVDCDGCTIDWKK (UniProt Q99733) | -0.272
2 | NADSYN1_Q6IA69_338_YHSPEEEISLGPACWLWDFLRR (UniProt Q6IA69) | -0.0752
3 | NCAPH_Q15003_397+402_EPCQVQSCQEEMISLGDGDIR (UniProt Q15003) | -0.256
4 | NAE1_Q13564_460_SCLTGFLQEYGLSVMVK (UniProt Q13564) | 0.015
5 | MYOF_Q9NZM1_1131_HSATTVFGANTPIVSCNFDR (UniProt Q9NZM1) | -0.0984
6 | NCAPD2_Q15021_1249_MLDNFDCFGDK (UniProt Q15021) | -0.0579
7 | MYL6_P60660_2_CDFTEDQTAEFK (UniProt P60660) | -0.256
8 | MYO18A_Q92614_1046_LHFVHCFLPVAEGWAGEPR (UniProt Q92614) | 0.422
9 | NAGA_P17050_80_DMGYTYLNIDDCWIGGR (UniProt P17050) | 0.012
10 | NCAPH_Q15003_418_TMCPLLSMK (UniProt Q15003) | -0.375
11 | MYO18A_Q92614_811_GASFEELCHNYTQDR (UniProt Q92614) | -0.114
12 | MYO1G_B0I1T2_831_QDWGCR (UniProt B0I1T2) | 0.00382
13 | MYO1F_O00160_807_GQVCEVLKK (UniProt O00160) | -0.136
14 | MYO18A_Q92614_604_RPASEATFNVFYYLLACGDGTLR (UniProt Q92614) | 0.439
15 | MYO18A_Q92614_783_SSQHSLCSMMIVDTPGFQNPEQGGSAR (UniProt Q92614) | -0.287
16 | NBEAL2_Q6ZNJ1_2335_ALEGIISNFGQTPCQLLK (UniProt Q6ZNJ1) | -0.034
17 | NCBP1_Q09161_231_THVPMLQVWTADKPHPQEEYLDCLWAQIQK (UniProt Q09161) | -0.109
18 | NAP1L4_Q99733_250_ADPFSFEGPEIVDCDGCTIDWK (UniProt Q99733) | 0.0752
19 | MYO6_Q9UM54_1236_QMELHPDKPPILLVAGKDDMEMCELNLEETGLTR (UniProt Q9UM54) | -0.139
20 | MYO6_Q9UM54_587_HFAGAVCYETTQFVEK (UniProt Q9UM54) | 0.137

Row | Target | probe-labelled cysteine peptide fold change
21 | NAT10_Q9H0A0_517_DTLFCYHK (UniProt Q9H0A0) | 0.232
22 | MYO6_Q9UM54_610_NNDALHMSLESLICESR (UniProt Q9UM54) | -0.0225
23 | NBN_O60934_478_DEENQEMSSCK (UniProt O60934) | -0.269
24 | MYL9_P24844_109_NAFACFDEEASGFIHEDHLR (UniProt P24844) | -0.0812
25 | NCAPG2_Q86XI2_498_ICPMEHILVR (UniProt Q86XI2) | 0.0751
26 | NCBP1_Q09161_477+483_ILDIVPPTFSALCPANPTCIYK (UniProt Q09161) | 0.0197
27 | NCAPD3_P42695_588_HCDVSGMKEDLWILQDQCRDPAVSVR (UniProt P42695) | -0.0747
28 | NAA15_Q9BXJ9_238_LAVEETKGELLLQLCR (UniProt Q9BXJ9) | -0.292
29 | MYH9_P35579_988_KLEEEQIILEDQNCK (UniProt P35579) | -0.0176
30 | MYO19_Q96H55_755_VFMTDSMLELLECGR (UniProt Q96H55) | -0.124
31 | NAT1_P18440_44_AVPFENLNIHCGDAMDLGLEAIFDQVVRR (UniProt P18440) | -0.236
32 | NAA10_P41227_17+21_NARPEDLMNMQHCNLLCLPENYQMK (UniProt P41227) | -0.156
33 | MYO6_Q9UM54_514_EGLGVNEVHYVDNQDCIDLIEAK (UniProt Q9UM54) | -0.0652
34 | MYO9B_Q13459_1279_SKPCGSPR (UniProt Q13459) | -0.314
35 | MYO9B_Q13459_863_KELCFDDELVLQQLR (UniProt Q13459) | -0.00694
36 | NADSYN1_Q6IA69_686_CIENQVLQLER (UniProt Q6IA69) | 0.0584
37 | NAA10_P41227_21_NARPEDLMNMQHCNLLCLPENYQMK (UniProt P41227) | -0.081
38 | MYO6_Q9UM54_375_SAQSLEYCAELLGLDQDDLR (UniProt Q9UM54) | -0.182
39 | NCDN_Q9UBB6_415_EVCQLLPFLVR (UniProt Q9UBB6) | 0.163
